Measurements reported in PubChem BioAssay AID1159578 (Peter MacCallum Cancer Centre, 2015).
In all, the deposit lists about 18,000 reagents; below is a random part of them. In the full data, about 1,030 (5.7%) were called active. 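Inactive calls also include pools with fewer than 3300 nuclei, whose migration was not assessed.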 Raw values are not corrected between plates. Not all columns of the deposit are shown.

- Aim: 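Genome-wide hunt for genes controlling movement of lymphatic endothelial cells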 (primary screen)
- Cells: human lymphatic endothelial cells
- Reagent: siRNA pool against human genes, 40 nM
- Duration: 48 h after transfection
- Read-out: 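Cells stained with dye and imaged after a scratch; covered wound area and nuclei counted, duplicates averaged, migration set against mock wells and turned into a robust z-score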
- Direction: migration robust z-score: higher = faster migration into the scratch; nuclei per well: higher = more cells in the well
- Hit rule: 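Migration changed when robust z exceeds 2 or falls below -2 and mean nuclei number is at least 3300; otherwise not called changed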
- Calls: active = migration changed; inactive = no migration change, or too few cells

Target gene | migration robust z-score | nuclei per well, duplicate mean | call
ALPK2 | -0.31 | 5624 | inactive
ZFPM1 | -2.06 | 4569 | active
RNF32 | 1.17 | 5604 | inactive
ACOT8 | 0.2 | 5290 | inactive
THOP1 | 0.39 | 5820 | inactive
TP53I3 | 0.44 | 5839 | inactive
THEM5 | -0.39 | 5798 | inactive
FANCM | -1.35 | 4990 | inactive
SSNA1 | -2.33 | 6026 | active
CHODL | 0.73 | 5738 | inactive
SBSPON | 0.36 | 5581 | inactive
NFIA | 0.94 | 6188 | inactive
MICB | 0.78 | 6874 | inactive
STK36 | -2.1 | 4158 | active
FHIP2B | 1.34 | 6022 | inactive
HIPK2 | -0.7 | 4284 | inactive
GCH1 | 0.99 | 5586 | inactive
TMEM160 | 0.78 | 5036 | inactive
NXPE3 | -0.5 | 5894 | inactive
PSENEN | -0.91 | 5772 | inactive

6 entries from above, set out differently:
{"Target gene": "STK36", "migration robust z-score": -2.1, "nuclei per well, duplicate mean": 4158, "call": "active"}
{"Target gene": "FHIP2B", "migration robust z-score": 1.34, "nuclei per well, duplicate mean": 6022, "call": "inactive"}
{"Target gene": "HIPK2", "migration robust z-score": -0.7, "nuclei per well, duplicate mean": 4284, "call": "inactive"}
{"Target gene": "GCH1", "migration robust z-score": 0.99, "nuclei per well, duplicate mean": 5586, "call": "inactive"}
{"Target gene": "TMEM160", "migration robust z-score": 0.78, "nuclei per well, duplicate mean": 5036, "call": "inactive"}
{"Target gene": "NXPE3", "migration robust z-score": -0.5, "nuclei per well, duplicate mean": 5894, "call": "inactive"}

Next entries follow:
Target gene | migration robust z-score | nuclei per well, duplicate mean | call
ZNF625 | -0.83 | 4880 | inactive
ATG2A | -0.16 | 5760 | inactive
FGF1 | -1.06 | 4358 | inactive
FAM218A | 0.26 | 5346 | inactive
ZC4H2 | -0.58 | 4169 | inactive
CEP350 | 1.21 | 5438 | inactive
MORC2 | -0.08 | 5286 | inactive
BARX2 | 0.75 | 5818 | inactive
PRKG1 | -1.09 | 5356 | inactive
STX4 | -1.5 | 6223 | inactive
CELF3 | -0.08 | 4884 | inactive
SMDT1 | -1.32 | 6316 | inactive
ADA | -1.04 | 4893 | inactive
ATG9B | 1.54 | 5766 | inactive
PACS1 | -0.18 | 5746 | inactive
CALY | -0.31 | 5832 | inactive
ZNF721 | -0.5 | 5510 | inactive
TMEM218 | -2.75 | 5301 | active
SLC35E1 | 0.78 | 6554 | inactive
